Measured values taken from PMC10442049.
These are yes or no findings as the source states them, for the method shown. Binding seen in cells or lysates may run through a third protein. Some binding calls cover weakened binding; strength is not graded here. Tags and fused reporters may be left off the sequences shown. Each block holds one molecule with its values, some of them ahead of it.

The chains behind the UniProt entries cited, without tags or fusion partners.
UniProt Q96321: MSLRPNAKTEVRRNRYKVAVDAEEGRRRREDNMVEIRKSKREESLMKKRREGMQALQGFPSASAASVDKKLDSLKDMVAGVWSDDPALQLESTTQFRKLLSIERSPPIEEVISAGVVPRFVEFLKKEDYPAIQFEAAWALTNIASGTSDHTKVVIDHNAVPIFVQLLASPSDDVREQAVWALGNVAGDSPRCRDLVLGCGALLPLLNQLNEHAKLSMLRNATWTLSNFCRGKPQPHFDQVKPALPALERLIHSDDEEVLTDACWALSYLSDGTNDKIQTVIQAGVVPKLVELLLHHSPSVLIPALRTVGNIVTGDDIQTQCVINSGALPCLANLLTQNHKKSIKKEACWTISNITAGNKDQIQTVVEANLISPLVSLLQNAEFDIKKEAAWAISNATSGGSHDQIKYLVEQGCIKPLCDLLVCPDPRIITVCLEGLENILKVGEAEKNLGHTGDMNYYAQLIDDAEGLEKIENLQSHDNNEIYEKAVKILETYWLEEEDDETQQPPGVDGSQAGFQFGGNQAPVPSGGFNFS
UniProt F4JL11: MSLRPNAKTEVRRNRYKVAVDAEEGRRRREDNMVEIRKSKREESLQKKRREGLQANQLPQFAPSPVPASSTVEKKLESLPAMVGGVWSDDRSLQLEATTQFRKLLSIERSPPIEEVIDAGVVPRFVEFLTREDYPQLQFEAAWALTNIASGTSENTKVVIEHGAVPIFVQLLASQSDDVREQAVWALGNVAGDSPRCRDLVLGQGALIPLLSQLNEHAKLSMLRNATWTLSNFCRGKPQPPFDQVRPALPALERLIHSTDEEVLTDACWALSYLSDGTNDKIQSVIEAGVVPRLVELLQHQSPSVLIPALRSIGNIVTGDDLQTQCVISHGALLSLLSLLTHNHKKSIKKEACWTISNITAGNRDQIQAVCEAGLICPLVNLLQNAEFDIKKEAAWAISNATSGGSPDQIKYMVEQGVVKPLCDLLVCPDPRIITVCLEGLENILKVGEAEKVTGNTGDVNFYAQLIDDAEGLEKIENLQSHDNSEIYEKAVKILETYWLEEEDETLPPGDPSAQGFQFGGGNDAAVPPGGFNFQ

What was measured:
[1] = target: IMPA1 fused to a luciferase fragment (split-LUC) (Arabidopsis thaliana) (UniProt Q96321); assay: split reporter; split luciferase complementation in N. benthamiana leaves, Agrobacterium infiltration, luciferase activity 48 h after infiltration
[2] = target: IMPA2 fused to a luciferase fragment (split-LUC) (Arabidopsis thaliana) (UniProt F4JL11); assay: as above

binding [1]: binds
binding [2]: binds
Molecule: SWO1 fused to a luciferase fragment (split-LUC) (from UniProt F4JP43 1-2037)

binding [1]: binds
binding [2]: binds
B1: SWO1-C (aa 1001-2038) fused to a luciferase fragment (split-LUC) (domain or fragment, UniProt F4JP43 1001-2037)
chain: CVVRAQKSLVATPETPLQSRPGKTETPSAGHTNSKESSGTNPMIPLSSPLWSLSTSVDTLQSSSVQRGSAATHQPLLSASHAHQTPPTQNIVGHNTPWMSPLPFRNAWLASQQTSGFDVGSRFPVYPITDPVKLTPMKESSMTLSGAKHVQSGTSSNVSKVTPTLEPTSTVVAPAQHSTRVKSRKRKKMPVSVESGPNILNSLKQTELAASPLVPFTPTPANLGYNAGTLPSVVSMTAVPMDLVSTFPGKKIKSSFPSPIFGGNLVREVKQRSVLSEDTIEKLKEAKMHAEDASALATAAVSHSEYVWKQIEQQSHAGLQPETQDRLASAAVAIAAAAAVAKAAAAAANVAANAALQAKLMAEEASLPNASDQGLPKSYDSILPGQGTPASILKGEGAVVNSSSVLIAAREASKKRVEAATAATKRAENMDSIVKAAELASEAVSQAGILVSMGHPPLLNKLVEAGPSNYWRQAQESQEVQPCKTVVLEKETVSTSEGTFAGPKIVQTEFGGSVNTADGVSGPVPATGKLKGQEGDKYADLAKNNDVVFEPEVGSKFSIDAQQTIKATKNEDIKEGSNVEVFKEEPGLRTAWYSANVLSLEDDKAYVLFSDLSVEQGTDKLKEWVALKGEGDQAPKIRPARSVTALPYEGTRKRRRAALGDHIWKIGDRVDSWVHDSWLEGVITEKNKKDENTVTVHFPAEEETLTIKAWNLRPSLVWKDGKWIECSSSGETISSSHEGDTPKEKRPRLGTPALVAEVKDTSMKIVDDPDLGKPPQTGVLNLGVSENTFNIGKSTREENKPDPLRMKRTGLQKQGSKVIFGVPKPGKKRKFMDVSKHYVSEASTKTQERKEPVKPVRSIVPQNSGIGSWKMPSKTISIEKQTTISRPKTFKPAPKPKEKPGATARIIPRKDSRNTTASDMESDESAENRGPGSGVSFKGTVEEQTTSSSHDTGSKNSSSLSTNKGRVAPTAGRLAKIEEDKALAENSSKTSEGMEPRRSIRRIQPTSRLLEGLQTSMMTSKIPSVSHSKSHLSQSKK
